Among the data in PubChem BioAssay AID602161 (Broad Institute, 2011) are activity change, negative = inhibition values, retold here.

The list shows a part of the results. Where no call is shown, the source marks the result inconclusive.

The target in the assay is Heat shock protein HSP 90-alpha (Homo sapiens) (UniProt P07900). Briefly: HsHsp90-dependent glucocorticoid receptor activity inhibition – S. cerevisiae, beta-galactosidase luminescence, dry powder, selectivity assay for Plasmodium Hsp90 inhibitor project, dose response (AID 602161). As to conditions: S. cerevisiae HsHsp90 GR reporter, beta-gal luminescence; at 26 µM (top of the series).

For the molecule `O=S(=O)(NC1CC2CCC1C2)c1ccc(Cl)cc1` (stereo unspecified), the activity change, negative = inhibition is -43.5%.
